{"source": "PubChem BioAssay AID1224829 (NIAID, 2016)", "aim": "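Genes needed for LPS-driven NF-kappaB p65 nuclear entry in mouse macrophages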 (follow-up of hits)", "system": "mouse RAW264.7 G9 macrophage reporter cells", "knock-down reagent": "single siRNA against mouse genes, 100 nM", "timing": "2 days of siRNA knock-down, then 40 min of LPS before fixing", "challenge": "LPS (Salmonella minnesota R595) at 10 ng/ml", "read-out": "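Imaging of GFP-p65 after 40 min of LPS; nuclear over perinuclear ring intensity ratio, scaled to plate median and non-targeting control wells, given as z-score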", "reading the numbers": "p65 translocation z-score: higher = more nuclear NF-kappaB p65 after LPS", "hit rule": "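Active means the replicate-mean z-score lies beyond plus or minus 2, in either direction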", "meaning of the calls": "active = changed p65 translocation (either direction); inactive = no clear change", "note": "Shown is an unselected part of about 3,800 deposited reagents. 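Calls cover raised and lowered translocation; gene median uses one vendor's three siRNAs; qiagen siRNAs acted more weakly than ambion siRNAs.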 Reagents against one gene are numbered here. Not all columns of the deposit are shown."}
{"gene": "Ptges (prostaglandin E synthase)", "siRNA no.": 1, "siRNA vendor or control pool": "ambion single siRNA", "p65 translocation z-score, replicate mean": 0.16, "outcome": "inactive"}
{"gene": "Ptges (prostaglandin E synthase)", "siRNA no.": 2, "siRNA vendor or control pool": "ambion single siRNA", "p65 translocation z-score, replicate mean": -2.86, "outcome": "active"}
{"gene": "Ptges (prostaglandin E synthase)", "siRNA no.": 3, "siRNA vendor or control pool": "ambion single siRNA", "p65 translocation z-score, replicate mean": -0.966, "outcome": "inactive"}
{"gene": "Ptges (prostaglandin E synthase)", "siRNA no.": 4, "siRNA vendor or control pool": "qiagen single siRNA", "p65 translocation z-score, replicate mean": -1.05, "outcome": "inactive"}
{"gene": "Ptges (prostaglandin E synthase)", "siRNA no.": 5, "siRNA vendor or control pool": "qiagen single siRNA", "p65 translocation z-score, replicate mean": -1.21, "outcome": "inactive"}
{"gene": "Ptges (prostaglandin E synthase)", "siRNA no.": 6, "siRNA vendor or control pool": "qiagen single siRNA", "p65 translocation z-score, replicate mean": 0.945, "outcome": "inactive"}
{"gene": "Gm10283 (predicted gene 10283)", "siRNA no.": 1, "siRNA vendor or control pool": "ambion single siRNA", "p65 translocation z-score, replicate mean": 0.519, "outcome": "inactive"}
{"gene": "Gm10283 (predicted gene 10283)", "siRNA no.": 2, "siRNA vendor or control pool": "ambion single siRNA", "p65 translocation z-score, replicate mean": -0.586, "outcome": "inactive"}
{"gene": "Gm10283 (predicted gene 10283)", "siRNA no.": 3, "siRNA vendor or control pool": "ambion single siRNA", "p65 translocation z-score, replicate mean": -1.77, "outcome": "inactive"}
{"gene": "Gm10283 (predicted gene 10283)", "siRNA no.": 4, "siRNA vendor or control pool": "qiagen single siRNA", "p65 translocation z-score, replicate mean": -1.96, "outcome": "inactive"}
{"gene": "Gm10283 (predicted gene 10283)", "siRNA no.": 5, "siRNA vendor or control pool": "qiagen single siRNA", "p65 translocation z-score, replicate mean": -1.51, "outcome": "inactive"}
{"gene": "Gm10283 (predicted gene 10283)", "siRNA no.": 6, "siRNA vendor or control pool": "qiagen single siRNA", "p65 translocation z-score, replicate mean": 2.34, "outcome": "active"}
{"gene": "Ndrg4 (N-myc downstream regulated gene 4)", "siRNA no.": 1, "siRNA vendor or control pool": "ambion single siRNA", "p65 translocation z-score, replicate mean": 1.63, "outcome": "inactive"}
{"gene": "Ndrg4 (N-myc downstream regulated gene 4)", "siRNA no.": 2, "siRNA vendor or control pool": "ambion single siRNA", "p65 translocation z-score, replicate mean": -1.26, "outcome": "inactive"}
{"gene": "Ndrg4 (N-myc downstream regulated gene 4)", "siRNA no.": 3, "siRNA vendor or control pool": "ambion single siRNA", "p65 translocation z-score, replicate mean": -1.85, "outcome": "inactive"}
{"gene": "Ndrg4 (N-myc downstream regulated gene 4)", "siRNA no.": 4, "siRNA vendor or control pool": "qiagen single siRNA", "p65 translocation z-score, replicate mean": 1.81, "outcome": "inactive"}
{"gene": "Ndrg4 (N-myc downstream regulated gene 4)", "siRNA no.": 5, "siRNA vendor or control pool": "qiagen single siRNA", "p65 translocation z-score, replicate mean": 4.81, "outcome": "active"}
{"gene": "Ndrg4 (N-myc downstream regulated gene 4)", "siRNA no.": 6, "siRNA vendor or control pool": "qiagen single siRNA", "p65 translocation z-score, replicate mean": -1.6, "outcome": "inactive"}
{"gene": "Snrnp40 (small nuclear ribonucleoprotein 40 (U5))", "siRNA no.": 1, "siRNA vendor or control pool": "ambion single siRNA", "p65 translocation z-score, replicate mean": -2.31, "outcome": "active"}
{"gene": "Snrnp40 (small nuclear ribonucleoprotein 40 (U5))", "siRNA no.": 2, "siRNA vendor or control pool": "ambion single siRNA", "p65 translocation z-score, replicate mean": -2.7, "outcome": "active"}
{"gene": "Snrnp40 (small nuclear ribonucleoprotein 40 (U5))", "siRNA no.": 3, "siRNA vendor or control pool": "ambion single siRNA", "p65 translocation z-score, replicate mean": -1.21, "outcome": "inactive"}
{"gene": "Snrnp40 (small nuclear ribonucleoprotein 40 (U5))", "siRNA no.": 4, "siRNA vendor or control pool": "qiagen single siRNA", "p65 translocation z-score, replicate mean": 0.559, "outcome": "inactive"}
{"gene": "Snrnp40 (small nuclear ribonucleoprotein 40 (U5))", "siRNA no.": 5, "siRNA vendor or control pool": "qiagen single siRNA", "p65 translocation z-score, replicate mean": 2.65, "outcome": "active"}
{"gene": "Snrnp40 (small nuclear ribonucleoprotein 40 (U5))", "siRNA no.": 6, "siRNA vendor or control pool": "qiagen single siRNA", "p65 translocation z-score, replicate mean": -0.466, "outcome": "inactive"}
{"gene": "Pla2g4a (phospholipase A2, group IVA (cytosolic, calcium-dependent))", "siRNA no.": 1, "siRNA vendor or control pool": "ambion single siRNA", "p65 translocation z-score, replicate mean": 1.69, "outcome": "inactive"}
{"gene": "Pla2g4a (phospholipase A2, group IVA (cytosolic, calcium-dependent))", "siRNA no.": 2, "siRNA vendor or control pool": "ambion single siRNA", "p65 translocation z-score, replicate mean": -2.8, "outcome": "active"}
{"gene": "Pla2g4a (phospholipase A2, group IVA (cytosolic, calcium-dependent))", "siRNA no.": 3, "siRNA vendor or control pool": "ambion single siRNA", "p65 translocation z-score, replicate mean": -9.13, "outcome": "active"}
{"gene": "Pla2g4a (phospholipase A2, group IVA (cytosolic, calcium-dependent))", "siRNA no.": 4, "siRNA vendor or control pool": "qiagen single siRNA", "p65 translocation z-score, replicate mean": 0.717, "outcome": "inactive"}
{"gene": "Pla2g4a (phospholipase A2, group IVA (cytosolic, calcium-dependent))", "siRNA no.": 5, "siRNA vendor or control pool": "qiagen single siRNA", "p65 translocation z-score, replicate mean": 0.287, "outcome": "inactive"}
{"gene": "Pla2g4a (phospholipase A2, group IVA (cytosolic, calcium-dependent))", "siRNA no.": 6, "siRNA vendor or control pool": "qiagen single siRNA", "p65 translocation z-score, replicate mean": 2.15, "outcome": "active"}
